PubChem BioAssay AID743121, NCATS – 2013
Here is a random part of about 26,000 reagents. Of all reagents, 167 (0.63%) are marked active. 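Calls are per gene from RSA p-values that are not deposited; an individual active-marked siRNA can sensitise only weakly.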 Entries without a mark were called inactive. The numbers tell different reagents against one gene apart. Further read-outs or replicates are left out here.

- Assay: 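Knock-downs that sensitise breast cancer cells to camptothecin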 (primary screen)
- System: MDA-MB-231 cells, a human breast cancer line
- Reagents: single siRNA against human genes, 20 nM siRNA (0.8 pmol per well)
- Time to read-out: 120 h (drug added 48 h after transfection, read 72 h later)
- Conditions: camptothecin 20 nM (about EC30) for 72 h; vehicle 0.1% DMSO in parallel plates
- Read-out: 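Cell viability by ATP luminescence (CellTiter-Glo) as % of non-targeting siRNA wells, and the log2 ratio of viability without drug over viability with camptothecin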
- Reading the numbers: log2 vehicle/camptothecin viability: higher = stronger sensitisation to camptothecin
- Call rule: 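Each gene scored by redundant siRNA activity (RSA) over its individual siRNA ratios; a gene is called active at p < 0.001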

log2 vehicle/camptothecin viability, by target and reagent
ATP2C1 (ATPase secretory pathway Ca2+ transporting 1): #1 -0.169; #2 0.0325; #3 -0.414
ALDH4A1 (aldehyde dehydrogenase 4 family member A1): #1 -0.0205; #2 -0.351; #3 0.93; #4 -0.345
RNASEL (ribonuclease L): #1 -0.207; #2 -0.217; #3 -0.264; #4 -0.496
SOD3 (superoxide dismutase 3): #1 -0.447; #2 -0.119; #3 -0.313; #4 -0.126
MTMR8 (myotubularin related protein 8): #1 -0.231; #2 -0.127; #3 0.00232; #4 -0.324
FGF10 (fibroblast growth factor 10): #1 -0.444; #2 0.0879; #3 -0.627
ATOH1 (atonal bHLH transcription factor 1): #1 -0.129; #2 -0.0991; #3 -0.0408; #4 -0.0225
GPR173 (G protein-coupled receptor 173): #1 -0.224; #2 -0.684; #3 -1.16; #4 -0.36

A stretch from the list above:
log2 vehicle/camptothecin viability, by target and reagent
MTMR8 (myotubularin related protein 8): #2 -0.127; #3 0.00232; #4 -0.324
FGF10 (fibroblast growth factor 10): #1 -0.444; #2 0.0879; #3 -0.627
ATOH1 (atonal bHLH transcription factor 1): #1 -0.129; #2 -0.0991; #3 -0.0408

Additional results:
log2 vehicle/camptothecin viability, by target and reagent
PARD6G (par-6 family cell polarity regulator gamma): #1 -0.256; #2 -0.255; #3 -0.0148; #4 -0.681
TJP1 (tight junction protein 1): #1 -0.401; #2 -0.115; #3 0.0429; #4 -0.29
DLGAP5 (DLG associated protein 5): #1 -0.201; #2 0.709; #3 0.0753; #4 0.0206; #5 -0.259; #6 -0.122
ADAM23 (ADAM metallopeptidase domain 23): #1 -0.378; #2 -0.0949; #3 -0.185; #4 -0.123
NPVF (neuropeptide VF precursor): #1 -0.0343; #2 -0.0262; #3 0.254; #4 -0.00238
RAB43 (RAB43, member RAS oncogene family): #1 -0.192; #2 -0.215; #3 -0.239; #4 -0.262
FGF4 (fibroblast growth factor 4): #1 0.0495; #2 0.142; #3 -0.426; #4 0.56
HPD (4-hydroxyphenylpyruvate dioxygenase): #1 -0.905; #2 -0.618; #3 -0.128
RNF149 (ring finger protein 149): #1 -0.435; #2 -0.25; #3 0.253; #4 0.822
STX19 (syntaxin 19): #1 -0.316; #2 -0.395; #3 0.00705; #4 -0.278
